# Literature values in US20240229143A1, “FORMULATION OF PEPTIDE IMMUNOTHERAPIES” (priority 2020, published 2024).
# Conditions: single amino acid
smiles,measurement,value
N[C@@H](Cc1ccc(O)cc1)C(=O)O [Tyrosine (Tyr)],Log D7.4,0.55
